Experimental data taken from PubChem BioAssay AID248 (DTP/NCI, 2004).
The list does not hold the whole screen: it gathers tests that were run many times, whatever their T/C, doses with no T/C, and many T/C values between a quarter and a half above the control. Further doses and runs are listed elsewhere. T/C is the treated group as % of the vehicle group. Some entries give survivors of the animals treated and no T/C: the source holds a T/C of zero for them, seemingly a mark for toxic or unscored doses. Some survivor counts are full or nearly so, which does not show that the dose was tolerated: the source hardly ever lists a survival T/C far under the control, and the zero likely stands for such cases as well. Counts of survivors are from the toxicity check (mostly the fifth day) where no day follows; animals may have died later. Schedule codes are those of the source, taken here to give the interval after Q, in days (D) or hours (H), and the number of doses after X. Some schedules carry Z or #; the key to these is not given. Some doses were run more than once; the results are listed from low to high. Where survival is the endpoint, the PubChem record calls one and a half times the control and up active, and a quarter to a half above the control has no call in these data; cut-offs in other NCI protocols can differ. Some T/C values carry the count of animals alive at the toxicity check (mostly the fifth day); where none is given, no animal had died by that day.

Tested on: L1210 leukemia ip in BDF1 mice, survival T/C
Experiment: NCI In Vivo Anticancer Drug Screen. Data for tumor model L1210 Leukemia (intraperitoneal) in B6D2F1 (BDF1) mice
Settings: higher T/C = longer survival
[1] = T/C endpoint: mean survival time, dose: 200.0 mg/kg/injection, schedule: Q01DX009 (ip), vehicle: saline
[2] = T/C endpoint: mean survival time, dose: 400.0 mg/kg/injection, schedule: Q04DX003 (ip), vehicle: saline
[3] = T/C endpoint: mean survival time, dose: 400.0 mg/kg/injection, schedule: Q01DX001 (ip), vehicle: saline

## CC[C@H]1CN2CCc3cc(OC)c(OC)cc3[C@@H]2C[C@@H]1C[C@H]1NCCc2cc(O)c(OC)cc21
T/C endpoint: mean survival time, dose: 2.0 mg/kg/injection, schedule: Q01DX015 (ip), vehicle: saline
  T/C: 131 and 141 % of control
T/C endpoint: mean survival time, dose: 4.0 mg/kg/injection, schedule: Q01DX005 (ip), vehicle: saline
  T/C: 130 % of control
T/C endpoint: mean survival time, dose: 4.0 mg/kg/injection, schedule: Q01DX015 (ip), vehicle: saline
  T/C: 136 % of control
T/C endpoint: mean survival time, dose: 7.5 mg/kg/injection, schedule: Q01DX001 (ip), vehicle: saline
  T/C: 127 % of control
T/C endpoint: mean survival time, dose: 7.5 mg/kg/injection, schedule: Q01DX015 (ip), vehicle: saline
  T/C: 148 % of control
T/C endpoint: mean survival time, dose: 8.0 mg/kg/injection, schedule: Q01DX015 (ip), vehicle: saline
  T/C: 129 % of control
T/C endpoint: mean survival time, dose: 8.0 mg/kg/injection, schedule: Q04DX003 (ip), vehicle: saline
  T/C: 127 % of control
T/C endpoint: mean survival time, dose: 15.0 mg/kg/injection, schedule: Q01DX001 (ip), vehicle: saline
  T/C: 135 % of control
T/C endpoint: mean survival time, dose: 16.0 mg/kg/injection, schedule: Q01DX009 (ip), vehicle: saline
  survivor count: 7 of 10
T/C endpoint: mean survival time, dose: 16.0 mg/kg/injection, schedule: Q04DX003 (ip), vehicle: saline
  T/C: 134 and 140 % of control
T/C endpoint: mean survival time, dose: 16.0 mg/kg/injection, schedule: Q## X003 (ip), vehicle: saline
  T/C: 130 % of control
T/C endpoint: mean survival time, dose: 16.0 mg/kg/injection, schedule: Q## X008 (ip), vehicle: saline
  T/C: 133 % of control [8 of 10 alive]
T/C endpoint: mean survival time, dose: 24.0 mg/kg/injection, schedule: Q01DX001 (oral), vehicle: saline
  survivor count: 7 of 10
T/C endpoint: mean survival time, dose: 30.0 mg/kg/injection, schedule: Q01DX001 (ip), vehicle: saline
  T/C: 132 % of control
T/C endpoint: mean survival time, dose: 30.0 mg/kg/injection, schedule: Q01DX015 (ip), vehicle: saline
  survivor count: 0 of 6 and 1 of 6
T/C endpoint: mean survival time, dose: 32.0 mg/kg/injection, schedule: Q01DX005 (ip), vehicle: saline
  survivor count: 3 of 10
T/C endpoint: mean survival time, dose: 32.0 mg/kg/injection, schedule: Q01DX009 (ip), vehicle: saline
  T/C: 136 % of control [9 of 10 alive]
T/C endpoint: mean survival time, dose: 32.0 mg/kg/injection, schedule: Q04DX003 (ip), vehicle: saline
  T/C: 136 % of control
T/C endpoint: mean survival time, dose: 32.0 mg/kg/injection, schedule: Q## X002 (ip), vehicle: saline
  survivor count: 0 of 10
T/C endpoint: mean survival time, dose: 32.0 mg/kg/injection, schedule: Q## X003 (ip), vehicle: saline
  survivor count: 4 of 10
T/C endpoint: mean survival time, dose: 32.0 mg/kg/injection, schedule: Q## X008 (ip), vehicle: saline
  survivor count: 3 of 10
T/C endpoint: mean survival time, dose: 32.0 mg/kg/injection, schedule: Q## X016 (ip), vehicle: saline
  survivor count: 3 of 10
T/C endpoint: mean survival time, dose: 32.0 mg/kg/injection, schedule: Q## X024 (ip), vehicle: saline
  survivor count: 0 of 10
T/C endpoint: mean survival time, dose: 48.0 mg/kg/injection, schedule: Q01DX001 (oral), vehicle: saline
  survivor count: 1 of 10
T/C endpoint: mean survival time, dose: 60.0 mg/kg/injection, schedule: Q01DX001 (ip), vehicle: saline
  T/C: 132 % of control [3 of 4 alive]
T/C endpoint: mean survival time, dose: 60.0 mg/kg/injection, schedule: Q01DX015 (ip), vehicle: saline
  survivor count: 0 of 6
T/C endpoint: mean survival time, dose: 64.0 mg/kg/injection, schedule: Q01DX009 (ip), vehicle: saline
  survivor count: 5 of 10
T/C endpoint: mean survival time, dose: 64.0 mg/kg/injection, schedule: Q04DX003 (ip), vehicle: saline
  survivor count: 1 of 10
T/C endpoint: mean survival time, dose: 64.0 mg/kg/injection, schedule: Q## X002 (ip), vehicle: saline
  survivor count: 2 of 10
T/C endpoint: mean survival time, dose: 64.0 mg/kg/injection, schedule: Q## X008 (ip), vehicle: saline
  survivor count: 0 of 10
T/C endpoint: mean survival time, dose: 64.0 mg/kg/injection, schedule: Q## X016 (ip), vehicle: saline
  survivor count: 0 of 10
T/C endpoint: mean survival time, dose: 96.0 mg/kg/injection, schedule: Q01DX001 (oral), vehicle: saline
  survivor count: 1 of 10
T/C endpoint: mean survival time, dose: 120.0 mg/kg/injection, schedule: Q01DX015 (ip), vehicle: saline
  survivor count: 0 of 6
T/C endpoint: mean survival time, dose: 240.0 mg/kg/injection, schedule: Q01DX015 (ip), vehicle: saline
  survivor count: 0 of 6
T/C endpoint: median survival time, dose: 32.0 mg/kg/injection, schedule: Q04DX003 (ip), vehicle: alkali diluted with saline
  T/C: 128 % of control
T/C endpoint: median survival time, dose: 64.0 mg/kg/injection, schedule: Q04DX003 (ip), vehicle: alkali diluted with saline
  T/C: 128 % of control

## O=C(Nc1ccc(Cl)cc1)N1CC1
T/C endpoint: mean survival time, dose: 100.0 mg/kg/injection, schedule: Q04DX003 (ip), vehicle: Klucel (hydroxypropylcellulose) (HPC)
  survivor count: 6 of 6
T/C endpoint: mean survival time, dose: 200.0 mg/kg/injection, schedule: Q04DX003 (ip), vehicle: Klucel (hydroxypropylcellulose) (HPC)
  survivor count: 0 of 6
T/C endpoint: mean survival time, dose: 400.0 mg/kg/injection, schedule: Q04DX003 (ip), vehicle: Klucel (hydroxypropylcellulose) (HPC)
  survivor count: 0 of 6

## c1ccc(C[N+](Cc2ccccc2)=C2CCCCC2)cc1
[1]
  survivor count: 1 of 6
[2]
  survivor count: 0 of 6

## CCOC(=O)C1CNc2ccccc2N1 (stereo not drawn)
T/C endpoint: mean survival time, dose: 100.0 mg/kg/injection, schedule: Q01DX009 (ip), vehicle: saline with Tween-80
  survivor count: 2 of 6
T/C endpoint: mean survival time, dose: 200.0 mg/kg/injection, schedule: Q04DX003 (ip), vehicle: saline with Tween-80
  survivor count: 2 of 6
T/C endpoint: mean survival time, dose: 400.0 mg/kg/injection, schedule: Q04DX003 (ip), vehicle: saline with Tween-80
  survivor count: 0 of 6

## N/C(=N\N=C\c1cccc2ccccc12)N/N=C/c1cccc2ccccc12
T/C endpoint: mean survival time, dose: 480.0 mg/kg/injection, schedule: Q01DX Z (ip), vehicle: methylcellulose (MC)
  survivor count: 2 of 6
T/C endpoint: mean survival time, dose: 650.0 mg/kg/injection, schedule: Q01DX Z (oral), vehicle: methylcellulose (MC)
  survivor count: 4 of 6
T/C endpoint: mean survival time, dose: 750.0 mg/kg/injection, schedule: Q01DX Z (oral), vehicle: methylcellulose (MC)
  survivor count: 3 of 6

## c1ccn2nncc2c1
T/C endpoint: mean survival time, dose: 400.0 mg/kg/injection, schedule: Q01DX001 (ip), vehicle: carboxymethylcellulose (CMC)
  survivor count: 0 of 4

## CCN(CC)CC(=O)NCC(CCN1CCCCC1)c1cccc2ccccc12 (stereo not drawn)
[1]
  survivor count: 0 of 6
T/C endpoint: mean survival time, dose: 400.0 mg/kg/injection, schedule: Q01DX009 (ip), vehicle: saline
  survivor count: 0 of 6

## CCCCCCCC/C=C\CCCCCCCC(=O)O.[Cu+2]
[3]
  survivor count: 2 of 6

## CCCCCCCCCCc1ccccc1
T/C endpoint: mean survival time, dose: 100.0 mg/kg/injection, schedule: Q04DX002 (ip), vehicle: saline with Tween-80
  survivor count: 3 of 3
T/C endpoint: mean survival time, dose: 400.0 mg/kg/injection, schedule: Q04DX002 (ip), vehicle: saline with Tween-80
  survivor count: 3 of 3

## O=C(O)C1C(C(=O)O)C2(Cl)C(Cl)=C(Cl)C1(Cl)C2(Cl)Cl.[Co] (stereo not drawn)
T/C endpoint: mean survival time, dose: 100.0 mg/kg/injection, schedule: Q01DX009 (ip), vehicle: saline sonified
  T/C: 133 % of control
T/C endpoint: mean survival time, dose: 200.0 mg/kg/injection, schedule: Q01DX009 (ip), vehicle: saline sonified
  survivor count: 5 of 6

## CC1CCC2(C)CCC3(C)C(=CCC4C5(C)CCC(OC(=O)c6ccccc6)C(C)(C)C5CCC43C)C2C1C (stereo not drawn)
T/C endpoint: mean survival time, dose: 400.0 mg/kg/injection, schedule: Q01DX001 (ip), vehicle: saline with Tween-80
  survivor count: 6 of 6

## O=C(O)C[P+](c1ccccc1)(c1ccccc1)c1ccccc1
T/C endpoint: mean survival time, dose: 200.0 mg/kg/injection, schedule: Q01DX001 (ip), vehicle: saline
  survivor count: 0 of 4
[3]
  survivor count: 1 of 4

## COC1OC(n2cnc3ncn(Cc4ccccc4)c3c2=N)C2OC(C)(C)OC12 (stereo not drawn)
[2]
  survivor count: 0 of 6

## COC(=O)c1n[nH]c(C)c1N=NN1CCC(C(N)=O)CC1
T/C endpoint: mean survival time, dose: 75.0 mg/kg/injection, schedule: Q01DX001 (ip), vehicle: other
  survivor count: 6 of 6
T/C endpoint: mean survival time, dose: 150.0 mg/kg/injection, schedule: Q01DX001 (ip), vehicle: other
  survivor count: 4 of 6
T/C endpoint: mean survival time, dose: 300.0 mg/kg/injection, schedule: Q01DX001 (ip), vehicle: other
  survivor count: 0 of 6

## Nc1ccc2nc3ccc(N)cc3[n+](-c3ccccc3)c2c1
T/C endpoint: mean survival time, dose: 40.0 mg/kg/injection, schedule: Q01DX001 (ip), vehicle: other
  T/C: 127 % of control [3 of 4 alive]
T/C endpoint: mean survival time, dose: 60.0 mg/kg/injection, schedule: Q01DX001 (ip), vehicle: other
  survivor count: 3 of 6
T/C endpoint: mean survival time, dose: 80.0 mg/kg/injection, schedule: Q01DX001 (ip), vehicle: other
  survivor count: 0 of 4
T/C endpoint: mean survival time, dose: 100.0 mg/kg/injection, schedule: Q01DX001 (ip), vehicle: other
  survivor count: 0 of 4
T/C endpoint: mean survival time, dose: 200.0 mg/kg/injection, schedule: Q01DX001 (ip), vehicle: other
  survivor count: 0 of 4
T/C endpoint: mean survival time, dose: 400.0 mg/kg/injection, schedule: Q01DX001 (ip), vehicle: other
  survivor count: 0 of 4
